Experimental findings from publication PMC11602438 are described below.

Construct, isoform or probe ends are uncertain for at least one entry. A weaker result is weaker than the reference pair of the same experiment. Where a protein sequence is shown, tags need not be part of it.

This data set concerns the target T1, YggS (E. coli PLP-BP), wild type (Escherichia coli) (UniProt P67080).
T1 sequence (looked up, limits assumed): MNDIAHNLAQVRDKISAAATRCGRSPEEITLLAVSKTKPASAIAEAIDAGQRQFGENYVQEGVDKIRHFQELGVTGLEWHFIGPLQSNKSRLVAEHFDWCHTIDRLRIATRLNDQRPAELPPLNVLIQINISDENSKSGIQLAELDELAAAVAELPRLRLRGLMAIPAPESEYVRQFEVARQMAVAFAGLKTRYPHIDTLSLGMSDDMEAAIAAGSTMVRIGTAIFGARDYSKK
The experiment in a line: EMSA. The following applies: PLP added (holo-form); REMSA with fixed RNA: 10 mM HEPES pH 7.3, 10 mM KCl, 1 mM MgCl2, 1 mM DTT, 5% glycerol, RT 30 min; 5% native PAGE, 0.5x TBE; recombinant protein; protein details: N-terminal 6xHis (pET28); probe letters rebuilt from the primers and the genome. (In general: Mobility shift assays separate free from complexed probe on a gel.)

With “GGGUGGUAACAGUCCGUGGCACGGUAAACUCCACCCGGAGCAAGGCCAAAUAGGGGUUCAUAAGGUACGGCCCGUACUGAACCCGGGUAGGCUGCUUGAGCCAGUGAGCGAUUGCUGGCCUAGAUGAAUGACUGUCCACGACAGAACCCGG [RnpB RNA fragment (210-357)]”, the binding result is recorded as “binds more weakly”.

“GGGUCGCGUGGAAGCCCUGCCUGGGGUUGAAGCGUUAAAACUUAAUCAGGCUAGUUUGUUAGUGGCGUGUCCGUCCGCAGCUGGCAAGCGAAUGUAAAGACUGACUAAGCAUGUAGUACCGAGG [SsrA RNA fragment (198-318)]”: the binding result was “binds more weakly”.
